Measurements reported in PubChem BioAssay AID1508597 (Cure First, 2020)
This is an unselected part of the about 2,100 reagents, under one of the conditions tested. 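Calls flag viability under 80% in either arm, not effects specific to rucaparib; the reference for percent is not stated.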 A number with no mark means an inactive call. A reagent listed more than once was tested more than once; the source does not tell the runs apart. Not given: the 100% reference.

Purpose: 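Survival screen with siRNA in ovarian cancer cells derived from patients, with or without rucaparib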 (primary screen)
System: human ovarian carcinoma lines grown from tumours: OCI-P5x (papillary serous) and OCI-C5x (clear cell)
Reagent: siRNA pool against human genes, 1.25 pmol siRNA per well
Time to read-out: 72 h or 96 h, depending on the cell culture
Conditions: rucaparib 20 µM (about IC30) or vehicle, present until read-out
Rucaparib or vehicle: Vehicle
Cell line: OCI-C5x (clear cell)
Detection: 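ATP luminescence measured at 72 or 96 h according to the culture, then normalised and expressed as percent viability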
Scale: viability, normalised: higher = more viable cells remaining
Rule for the call: 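Active when normalised viability falls below 80 percent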
Calls: active = viability under 80%; inactive = viability 80% or more

NDRG1, technical replicate 1: viability, normalised (%) = 64.2 (active)
NDRG1, technical replicate 2: viability, normalised (%) = 58.6 (active)
NDRG1, technical replicate 3: viability, normalised (%) = 63.5 (active)
PDE6A, technical replicate 1: viability, normalised (%) = 56.8 (active)
PDE6A, technical replicate 2: viability, normalised (%) = 64.2 (active)
PDE6A, technical replicate 3: viability, normalised (%) = 36.3 (active)
GCH1, technical replicate 1: viability, normalised (%) = 45.4 (active)
GCH1, technical replicate 2: viability, normalised (%) = 59.4 (active)
GCH1, technical replicate 3: viability, normalised (%) = 54.2 (active)

Look-ups from the list:
Result for NDRG1, technical replicate 3 in “viability, normalised (%)”: 63.5 (active)
GCH1, technical replicate 1, viability, normalised (%): 45.4 (active)

Further records follow.
RUVBL2, technical replicate 1: viability, normalised (%) = 35.9 (active)
RUVBL2, technical replicate 1: viability, normalised (%) = 33.3 (active)
RUVBL2, technical replicate 2: viability, normalised (%) = 49.1 (active)
RUVBL2, technical replicate 2: viability, normalised (%) = 57.5 (active)
RUVBL2, technical replicate 3: viability, normalised (%) = 55 (active)
RUVBL2, technical replicate 3: viability, normalised (%) = 44.2 (active)
